In PubChem BioAssay AID2685 (National Center for Advancing Translational Sciences (NCATS), 2010):
Some of the results follow. Further columns of the screen follow, without active or inactive calls. Most of these compounds were active or inconclusive in the main read-out, so they are no random draw. Words in brackets tell the shape of the fitted curve; partial curves, single points and poor fits give uncertain potencies.

Test: qHTS Assay for Lipid Storage Modulators in Drosophila S3 Cells;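 on cell number change: cells counted by Cell Tracker Red CMTPX staining in the red channel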
Details: BODIPY lipid droplet fluorescence, 18-24 h; for cell number change: measured here: cell count max response, cells fed with added oleic acid
Method in brief: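 Laser-scanning cytometry quantifies lipid droplet accumulation (500–530 nm total intensity; droplet/cell object ratio) in oleic acid-fed (400 uM added) Drosophila S3 cells treated with a concentration series. 20 uM Triacsin C defined 100% inhibition.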

[1] = measured here: lipid fluorescence (Fed channel) AC50, cells fed with added oleic acid
[2] = measured here: cell number channel AC50, cells fed with added oleic acid

Structure (SMILES)	cell number change	AC50 [1]	AC50 [2]
COc1ccc(NC(=S)N2CCN(C/C=C/c3ccccc3)CC2)c(OC)c1	5.42%	3.26 µM [rising, full curve]	
COc1ccc(Cn2c(=O)c3cccnc3n(Cc3ccc([N+](=O)[O-])cc3)c2=O)cc1	32.5%		32.6 µM [rising, single point]
O=C(CCN=C1NS(=O)(=O)c2ccccc21)OCc1nnc(-c2ccccc2)o1	-50%		29.1 µM [falling, single point]
O=C(COC(=O)c1ccc(S(=O)(=O)NCc2ccco2)cc1)Nc1ccc(OC(F)F)cc1	42.8%	2.91 µM [falling, partial curve]	32.6 µM [rising, single point]
CCOCC(=O)Nc1sc2c(c1C(=O)OCC)CCCC2	-45.6%	29.1 µM [falling, single point]	29.1 µM [falling, single point]
Cc1nc2[nH]c(=O)c3c(n2n1)NC1=C(C(=O)CC(C)(C)C1)C3c1ccc(F)cc1 (stereo not drawn)	41%	6.51 µM [rising, partial curve, poor fit]	16.4 µM [rising, single point]
COc1ccc(C2C(=O)c3ccccc3C2=O)cc1		3.26 µM [rising, full curve, poor fit]	6.51 µM [rising, single point]
O=c1cc(-c2ccccc2Cl)oc2cccc(O)c12	23.6%	1.64 µM [rising, partial curve, poor fit]	
CC(C)CCC1(CCNC(=O)c2cccs2)CCOC(C)(C)C1 (stereo not drawn)	-44.8%	0.116 µM [falling, full curve, poor fit]	0.00651 µM [falling, full curve, poor fit]
CCOC(=O)c1c(C)oc2cc(Br)c(OC(C)C(=O)OCC)cc12 (stereo not drawn)	-19.5%	0.103 µM [rising, full curve, poor fit]	
O=C1C=C(NC2CCCC2)CC(c2ccccc2)C1 (stereo not drawn)		5.8 µM [falling, full curve, poor fit]	
CNC(=O)c1sc(Nc2ccc(OCc3ccccc3)cc2)nc1C	13.4%		
CCOC(=O)Cc1cc(=O)n2[nH]c(C)c(C#N)c2n1	-33.7%	16.4 µM [falling, single point]	32.6 µM [falling, single point]
COc1ccc(N/C=C(\C#N)S(=O)(=O)c2ccc(Cl)cc2)c(OC)c1	8.02%	0.13 µM [rising, full curve, poor fit]	
O=C1c2ccccc2C(=O)N1C/C=C/CN1C(=O)c2ccccc2C1=O	-173%		
COCc1cc(C)nc(OCC(=O)N/N=C/c2ccc(O)cc2O)c1C#N	-0.425%		0.58 µM [falling, single point]
Nc1c(C(=O)CSc2nncn2-c2ccccc2)c(=O)[nH]c(=O)n1C1CC1	-4.79%	0.82 µM [rising, single point]	0.00517 µM [falling, full curve, poor fit]
Cc1ccc(-c2cc(C(=O)NCc3cnn(C)c3)c3cc(Br)ccc3n2)cc1	-23.9%	29.1 µM [falling, single point]	
O=C(O)c1ccc(NC(=O)C2C3CCC(O3)C2C(=O)O)cc1 (stereo not drawn)	-1.47%		
O=C(Nc1ccc(Cc2ccncc2)cc1)c1cc([N+](=O)[O-])ccc1N1CCOCC1	22.3%	4.61 µM [rising, full curve]	
O=C(Nc1ccc2c(c1)ncn2-c1ccccc1)c1ccco1		5.8 µM [rising, partial curve]	
[O-][N+]12CCN(CC1)c1ccccc12	3.4%	0.58 µM [falling, full curve]	
CCOc1cc(/C=C/c2nc3cc(C)c(C)cc3s2)ccc1OCC(=O)N1CCOCC1	5.96%	0.103 µM [falling, full curve, poor fit]	
CC(C)(C)NC(=O)c1cc(NC(=O)c2cccs2)cc(NC(=O)c2cccs2)c1	9.01%	6.51 µM [falling, single point]	
CSc1nc(N)c2c(n1)OC(N)=C(C#N)C2c1cccnc1 (stereo not drawn)	42.4%		18.4 µM [rising, single point]
Cc1cc(NC(=S)NC(=O)C2CC2)ccc1Br	-48.6%	25.9 µM [falling, partial curve]	20.6 µM [falling, partial curve, poor fit]
CC(C)(C)OC(=O)[C@H](Cc1ccccc1)NC(=O)c1nc[nH]c1C(=O)N1CCc2ccccc2C1	15%	29.1 µM [falling, single point]	
CN(C1CCCCC1)S(=O)(=O)c1ccc(=S)[nH]c1	3.89%	29.1 µM [falling, single point]	

An excerpt from above in order of SMILES length, largest number first.
Structure (SMILES)	cell number change	AC50 [1]	AC50 [2]
CC(C)(C)OC(=O)[C@H](Cc1ccccc1)NC(=O)c1nc[nH]c1C(=O)N1CCc2ccccc2C1	15%	29.1 µM [falling, single point]	
CNC(=O)c1sc(Nc2ccc(OCc3ccccc3)cc2)nc1C	13.4%		
COc1ccc(C2C(=O)c3ccccc3C2=O)cc1		3.26 µM [rising, full curve, poor fit]	6.51 µM [rising, single point]
